Experimental data published in doi:10.1101/2023.03.24.23287659.
Results are given in words; binding and its absence hold for the method and conditions named. For part of these data: In cells and extracts the contact can be indirect. Some results given as binding are weak or reduced against the parent protein; the word gives no strength. For part of these data: Tags and fused reporters may be left off the sequences shown. Values belong to the substance of their own block, whether it stands above or below them.

Sequences of proteins named here, by UniProt entry; tags and fusion partners are left off.
UniProt Q9BYV9: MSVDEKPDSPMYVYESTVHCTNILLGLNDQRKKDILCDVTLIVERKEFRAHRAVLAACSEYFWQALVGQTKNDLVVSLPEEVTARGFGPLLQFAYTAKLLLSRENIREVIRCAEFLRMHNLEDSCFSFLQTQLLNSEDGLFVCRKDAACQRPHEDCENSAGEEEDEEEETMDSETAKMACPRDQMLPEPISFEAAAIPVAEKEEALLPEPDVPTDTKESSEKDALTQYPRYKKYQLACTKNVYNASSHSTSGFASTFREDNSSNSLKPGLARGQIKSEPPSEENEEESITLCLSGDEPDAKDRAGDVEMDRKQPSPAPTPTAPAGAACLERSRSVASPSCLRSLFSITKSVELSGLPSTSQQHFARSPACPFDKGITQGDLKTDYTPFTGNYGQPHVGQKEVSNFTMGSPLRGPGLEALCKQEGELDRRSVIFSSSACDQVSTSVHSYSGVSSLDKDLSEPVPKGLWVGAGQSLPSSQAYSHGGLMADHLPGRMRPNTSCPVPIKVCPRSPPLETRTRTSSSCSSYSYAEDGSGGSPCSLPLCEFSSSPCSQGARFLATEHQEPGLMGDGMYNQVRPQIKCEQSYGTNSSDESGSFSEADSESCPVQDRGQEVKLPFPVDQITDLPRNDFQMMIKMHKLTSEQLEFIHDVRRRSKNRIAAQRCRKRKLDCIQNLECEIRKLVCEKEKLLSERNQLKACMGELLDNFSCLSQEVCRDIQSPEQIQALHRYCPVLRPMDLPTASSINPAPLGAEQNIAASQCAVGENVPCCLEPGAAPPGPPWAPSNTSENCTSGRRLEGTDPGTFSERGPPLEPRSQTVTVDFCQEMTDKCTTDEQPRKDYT
UniProt Q9H165: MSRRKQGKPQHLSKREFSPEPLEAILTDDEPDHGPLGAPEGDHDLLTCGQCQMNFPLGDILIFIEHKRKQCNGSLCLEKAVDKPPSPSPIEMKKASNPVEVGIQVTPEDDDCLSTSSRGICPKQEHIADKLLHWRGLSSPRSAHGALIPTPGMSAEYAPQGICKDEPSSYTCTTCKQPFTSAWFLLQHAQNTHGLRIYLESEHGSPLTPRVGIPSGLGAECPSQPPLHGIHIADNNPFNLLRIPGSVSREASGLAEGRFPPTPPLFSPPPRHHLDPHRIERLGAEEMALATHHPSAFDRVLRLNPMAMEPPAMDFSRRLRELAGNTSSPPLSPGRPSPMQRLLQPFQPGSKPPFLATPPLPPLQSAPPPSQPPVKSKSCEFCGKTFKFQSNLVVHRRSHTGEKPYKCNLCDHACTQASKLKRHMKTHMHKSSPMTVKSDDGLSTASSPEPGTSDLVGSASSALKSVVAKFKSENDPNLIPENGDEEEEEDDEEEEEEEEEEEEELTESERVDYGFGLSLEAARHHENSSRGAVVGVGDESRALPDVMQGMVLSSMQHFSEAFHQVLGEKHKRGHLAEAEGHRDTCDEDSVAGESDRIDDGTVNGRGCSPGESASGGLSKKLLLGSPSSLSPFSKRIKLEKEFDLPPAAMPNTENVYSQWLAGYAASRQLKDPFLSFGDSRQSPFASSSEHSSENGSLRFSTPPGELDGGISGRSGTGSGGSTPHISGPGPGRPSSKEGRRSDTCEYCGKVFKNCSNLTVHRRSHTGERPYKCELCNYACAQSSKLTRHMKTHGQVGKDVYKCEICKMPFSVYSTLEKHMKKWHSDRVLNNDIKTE

Columns and labels:
[1] = molecular target: Flag tagged BACH2 (human) (UniProt Q9BYV9); assay: co-IP
Flag-NRF2 = molecular target: T1, Flag-NRF2 (UniProt Q16236); assay: co-IP
T1 sequence: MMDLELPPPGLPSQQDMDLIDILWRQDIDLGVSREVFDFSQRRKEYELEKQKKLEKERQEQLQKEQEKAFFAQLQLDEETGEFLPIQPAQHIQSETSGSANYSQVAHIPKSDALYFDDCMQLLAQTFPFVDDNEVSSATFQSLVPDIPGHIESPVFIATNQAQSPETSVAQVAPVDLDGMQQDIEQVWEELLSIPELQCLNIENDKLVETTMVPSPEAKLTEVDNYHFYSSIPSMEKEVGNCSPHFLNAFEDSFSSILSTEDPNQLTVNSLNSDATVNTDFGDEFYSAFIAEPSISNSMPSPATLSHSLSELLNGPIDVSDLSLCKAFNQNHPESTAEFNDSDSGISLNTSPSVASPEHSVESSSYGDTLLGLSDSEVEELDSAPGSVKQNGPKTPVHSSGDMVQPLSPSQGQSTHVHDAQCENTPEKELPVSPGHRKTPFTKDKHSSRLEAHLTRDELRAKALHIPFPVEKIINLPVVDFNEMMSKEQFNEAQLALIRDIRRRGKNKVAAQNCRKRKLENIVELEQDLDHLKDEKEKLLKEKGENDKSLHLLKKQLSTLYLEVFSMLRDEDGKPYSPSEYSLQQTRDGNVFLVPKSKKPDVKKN

NFE2 = molecular target: T2, NFE2 (UniProt Q16621); assay: co-IP
T2 sequence: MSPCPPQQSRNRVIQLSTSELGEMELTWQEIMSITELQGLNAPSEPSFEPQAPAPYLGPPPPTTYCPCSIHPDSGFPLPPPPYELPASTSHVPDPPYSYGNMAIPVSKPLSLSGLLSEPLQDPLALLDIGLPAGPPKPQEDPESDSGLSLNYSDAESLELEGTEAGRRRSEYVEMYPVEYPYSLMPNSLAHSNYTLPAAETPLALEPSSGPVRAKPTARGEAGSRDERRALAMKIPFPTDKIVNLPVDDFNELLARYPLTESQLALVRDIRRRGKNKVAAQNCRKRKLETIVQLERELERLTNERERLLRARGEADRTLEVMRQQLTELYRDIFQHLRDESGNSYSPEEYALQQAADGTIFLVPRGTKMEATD

[2] = molecular target: T3, Flag-NRF2 (overexpressed in K562 cells) (UniProt Q16236); assay: co-IP
T3 sequence: T1 sequence

recombinant NRF2 = molecular target: T4, recombinant NRF2 (UniProt Q16236); assay: native gel or EMSA
T4 sequence: T1 sequence

- binding [1]: no binding
- binding (Flag-NRF2): no binding
Substance: HA tagged BCL11A (from UniProt Q9H165 1-835)

- binding (Flag-NRF2): binds
- binding (NFE2): no binding
Substance: HA-BACH2 (from UniProt Q9BYV9 1-841)

- binding [2]: binds
Substance: endogenous BACH2 (from UniProt Q9BYV9 1-841)

- binding (recombinant NRF2): binds
Substance: recombinant BACH2 (from UniProt Q9BYV9 1-841)
